Experimental data: the supplement of paper PMC12819154, “High-throughput peptide-centric local stability assay extends protein–ligand identification to membrane proteins, tissues and bacteria” (Nature Structural & Molecular Biology, 2025)
The list shows a part of the results. Most values lie at the level of the controls, where differences are scatter.

The chains behind the UniProt entries cited, without tags or fusion partners. Where a name states a change or a piece, a line headed by the entry shows the natural chain unless it says otherwise.
UniProt Q6PID8: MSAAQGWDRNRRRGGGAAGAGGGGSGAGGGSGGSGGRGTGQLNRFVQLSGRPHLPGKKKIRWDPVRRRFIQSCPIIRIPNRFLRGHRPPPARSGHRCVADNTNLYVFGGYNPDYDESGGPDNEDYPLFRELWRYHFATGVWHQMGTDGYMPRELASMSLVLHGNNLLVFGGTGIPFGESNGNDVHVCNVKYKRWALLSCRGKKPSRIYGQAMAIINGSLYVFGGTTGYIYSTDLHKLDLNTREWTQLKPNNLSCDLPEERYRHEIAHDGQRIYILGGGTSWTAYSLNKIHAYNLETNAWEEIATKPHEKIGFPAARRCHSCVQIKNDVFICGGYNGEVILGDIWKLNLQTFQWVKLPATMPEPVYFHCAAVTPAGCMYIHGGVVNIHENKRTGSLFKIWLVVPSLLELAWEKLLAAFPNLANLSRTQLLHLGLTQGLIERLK
UniProt Q6UB99: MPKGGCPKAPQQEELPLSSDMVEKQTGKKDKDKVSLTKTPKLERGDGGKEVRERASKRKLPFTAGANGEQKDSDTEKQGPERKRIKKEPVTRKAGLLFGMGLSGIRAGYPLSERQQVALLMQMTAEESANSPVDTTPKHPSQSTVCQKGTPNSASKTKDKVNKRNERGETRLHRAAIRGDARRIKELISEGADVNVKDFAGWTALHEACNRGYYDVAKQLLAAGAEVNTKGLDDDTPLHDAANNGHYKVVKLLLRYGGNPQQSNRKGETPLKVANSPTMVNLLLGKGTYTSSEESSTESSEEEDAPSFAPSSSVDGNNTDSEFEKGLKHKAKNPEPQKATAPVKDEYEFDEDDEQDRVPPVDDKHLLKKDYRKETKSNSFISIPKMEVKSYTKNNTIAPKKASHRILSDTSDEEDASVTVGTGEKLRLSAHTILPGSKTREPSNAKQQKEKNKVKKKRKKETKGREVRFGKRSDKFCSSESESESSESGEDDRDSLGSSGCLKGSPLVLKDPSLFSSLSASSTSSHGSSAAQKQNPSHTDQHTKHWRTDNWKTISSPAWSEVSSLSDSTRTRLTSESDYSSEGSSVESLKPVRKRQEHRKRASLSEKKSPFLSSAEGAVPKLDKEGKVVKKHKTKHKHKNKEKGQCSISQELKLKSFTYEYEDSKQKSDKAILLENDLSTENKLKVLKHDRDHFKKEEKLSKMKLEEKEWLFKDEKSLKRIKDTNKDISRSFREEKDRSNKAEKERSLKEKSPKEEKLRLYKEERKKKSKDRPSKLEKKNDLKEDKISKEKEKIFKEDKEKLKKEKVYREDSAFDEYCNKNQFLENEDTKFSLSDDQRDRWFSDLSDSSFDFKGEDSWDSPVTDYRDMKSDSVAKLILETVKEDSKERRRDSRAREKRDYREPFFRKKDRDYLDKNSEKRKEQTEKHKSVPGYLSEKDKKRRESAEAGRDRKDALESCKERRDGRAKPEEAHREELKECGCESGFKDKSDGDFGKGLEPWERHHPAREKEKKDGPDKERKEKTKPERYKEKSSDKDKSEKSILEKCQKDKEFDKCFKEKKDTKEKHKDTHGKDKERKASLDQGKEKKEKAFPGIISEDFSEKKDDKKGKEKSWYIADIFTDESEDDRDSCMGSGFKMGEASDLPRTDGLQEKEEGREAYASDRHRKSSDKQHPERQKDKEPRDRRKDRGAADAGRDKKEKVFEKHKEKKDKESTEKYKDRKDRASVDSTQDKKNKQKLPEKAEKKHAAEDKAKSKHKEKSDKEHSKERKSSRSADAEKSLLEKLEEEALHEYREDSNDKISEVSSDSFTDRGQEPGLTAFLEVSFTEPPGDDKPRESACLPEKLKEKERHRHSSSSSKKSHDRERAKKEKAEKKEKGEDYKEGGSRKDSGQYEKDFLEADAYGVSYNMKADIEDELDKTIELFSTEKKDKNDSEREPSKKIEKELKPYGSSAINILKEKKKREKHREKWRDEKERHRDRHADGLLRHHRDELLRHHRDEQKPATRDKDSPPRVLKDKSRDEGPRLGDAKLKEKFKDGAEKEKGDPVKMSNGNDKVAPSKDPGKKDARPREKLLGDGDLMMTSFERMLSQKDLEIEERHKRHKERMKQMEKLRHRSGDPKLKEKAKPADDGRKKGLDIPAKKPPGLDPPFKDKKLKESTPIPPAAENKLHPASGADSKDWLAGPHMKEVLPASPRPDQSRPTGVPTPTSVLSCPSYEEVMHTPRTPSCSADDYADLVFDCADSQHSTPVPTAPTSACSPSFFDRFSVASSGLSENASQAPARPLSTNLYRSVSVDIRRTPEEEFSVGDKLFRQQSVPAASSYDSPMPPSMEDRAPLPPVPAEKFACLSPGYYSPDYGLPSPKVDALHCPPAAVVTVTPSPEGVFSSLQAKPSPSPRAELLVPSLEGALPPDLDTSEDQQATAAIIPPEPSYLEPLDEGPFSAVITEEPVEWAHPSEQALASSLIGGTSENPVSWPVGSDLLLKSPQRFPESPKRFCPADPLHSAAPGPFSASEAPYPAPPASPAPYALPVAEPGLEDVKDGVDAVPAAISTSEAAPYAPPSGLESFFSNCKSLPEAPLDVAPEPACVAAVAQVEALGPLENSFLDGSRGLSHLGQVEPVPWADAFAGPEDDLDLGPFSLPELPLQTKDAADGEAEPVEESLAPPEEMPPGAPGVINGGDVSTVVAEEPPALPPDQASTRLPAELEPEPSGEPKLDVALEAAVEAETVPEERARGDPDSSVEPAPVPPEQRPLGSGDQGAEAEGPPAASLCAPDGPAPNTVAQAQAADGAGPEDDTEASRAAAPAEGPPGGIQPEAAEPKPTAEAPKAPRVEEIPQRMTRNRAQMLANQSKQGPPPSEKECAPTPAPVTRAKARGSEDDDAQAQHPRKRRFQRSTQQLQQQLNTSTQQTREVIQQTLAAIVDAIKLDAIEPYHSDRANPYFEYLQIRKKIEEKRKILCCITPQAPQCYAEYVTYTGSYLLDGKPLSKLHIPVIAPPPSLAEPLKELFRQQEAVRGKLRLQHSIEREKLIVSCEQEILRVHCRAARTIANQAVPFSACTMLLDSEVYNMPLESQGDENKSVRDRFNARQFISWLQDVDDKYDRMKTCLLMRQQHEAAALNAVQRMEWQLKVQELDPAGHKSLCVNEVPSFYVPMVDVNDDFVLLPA
UniProt Q5W0Q7: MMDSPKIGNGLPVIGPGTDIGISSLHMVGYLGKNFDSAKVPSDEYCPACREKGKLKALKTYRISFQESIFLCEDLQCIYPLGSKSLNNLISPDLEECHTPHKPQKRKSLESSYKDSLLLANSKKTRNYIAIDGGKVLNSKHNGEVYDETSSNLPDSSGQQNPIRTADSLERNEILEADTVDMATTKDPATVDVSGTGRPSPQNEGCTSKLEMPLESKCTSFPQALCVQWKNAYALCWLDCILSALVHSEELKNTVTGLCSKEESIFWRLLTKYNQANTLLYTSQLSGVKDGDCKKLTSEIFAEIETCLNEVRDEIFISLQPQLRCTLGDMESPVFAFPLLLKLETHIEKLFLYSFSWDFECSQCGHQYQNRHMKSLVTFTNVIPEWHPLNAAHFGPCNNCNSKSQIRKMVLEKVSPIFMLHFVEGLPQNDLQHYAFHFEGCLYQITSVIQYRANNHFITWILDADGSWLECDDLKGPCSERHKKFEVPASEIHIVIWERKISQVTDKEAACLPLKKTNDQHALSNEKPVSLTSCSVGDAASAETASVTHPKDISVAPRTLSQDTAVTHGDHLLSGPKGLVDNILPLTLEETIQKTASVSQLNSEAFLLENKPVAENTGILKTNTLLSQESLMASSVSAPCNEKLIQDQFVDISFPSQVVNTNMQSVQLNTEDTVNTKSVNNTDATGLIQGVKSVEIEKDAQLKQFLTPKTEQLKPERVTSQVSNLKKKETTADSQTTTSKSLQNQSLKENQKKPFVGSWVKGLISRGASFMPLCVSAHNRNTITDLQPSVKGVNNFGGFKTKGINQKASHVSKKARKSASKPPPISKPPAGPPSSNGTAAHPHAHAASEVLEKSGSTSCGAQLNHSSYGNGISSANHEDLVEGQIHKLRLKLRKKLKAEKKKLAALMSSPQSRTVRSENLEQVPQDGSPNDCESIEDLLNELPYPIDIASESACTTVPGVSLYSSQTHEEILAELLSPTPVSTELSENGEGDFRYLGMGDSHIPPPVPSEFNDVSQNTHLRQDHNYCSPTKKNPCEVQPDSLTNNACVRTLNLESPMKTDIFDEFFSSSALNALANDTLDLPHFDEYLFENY
UniProt Q6V9R5: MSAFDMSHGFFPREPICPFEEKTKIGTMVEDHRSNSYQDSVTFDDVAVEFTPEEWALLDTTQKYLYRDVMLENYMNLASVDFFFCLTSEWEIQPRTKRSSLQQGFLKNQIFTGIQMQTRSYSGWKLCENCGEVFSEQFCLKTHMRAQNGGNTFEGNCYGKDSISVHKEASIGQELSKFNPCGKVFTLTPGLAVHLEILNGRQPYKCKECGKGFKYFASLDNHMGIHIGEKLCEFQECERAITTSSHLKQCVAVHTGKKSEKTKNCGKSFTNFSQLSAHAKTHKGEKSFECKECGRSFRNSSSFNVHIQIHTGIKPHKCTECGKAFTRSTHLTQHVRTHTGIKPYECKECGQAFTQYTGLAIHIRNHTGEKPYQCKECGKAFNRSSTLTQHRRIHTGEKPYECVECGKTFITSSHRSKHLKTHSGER
UniProt Q6PJG6: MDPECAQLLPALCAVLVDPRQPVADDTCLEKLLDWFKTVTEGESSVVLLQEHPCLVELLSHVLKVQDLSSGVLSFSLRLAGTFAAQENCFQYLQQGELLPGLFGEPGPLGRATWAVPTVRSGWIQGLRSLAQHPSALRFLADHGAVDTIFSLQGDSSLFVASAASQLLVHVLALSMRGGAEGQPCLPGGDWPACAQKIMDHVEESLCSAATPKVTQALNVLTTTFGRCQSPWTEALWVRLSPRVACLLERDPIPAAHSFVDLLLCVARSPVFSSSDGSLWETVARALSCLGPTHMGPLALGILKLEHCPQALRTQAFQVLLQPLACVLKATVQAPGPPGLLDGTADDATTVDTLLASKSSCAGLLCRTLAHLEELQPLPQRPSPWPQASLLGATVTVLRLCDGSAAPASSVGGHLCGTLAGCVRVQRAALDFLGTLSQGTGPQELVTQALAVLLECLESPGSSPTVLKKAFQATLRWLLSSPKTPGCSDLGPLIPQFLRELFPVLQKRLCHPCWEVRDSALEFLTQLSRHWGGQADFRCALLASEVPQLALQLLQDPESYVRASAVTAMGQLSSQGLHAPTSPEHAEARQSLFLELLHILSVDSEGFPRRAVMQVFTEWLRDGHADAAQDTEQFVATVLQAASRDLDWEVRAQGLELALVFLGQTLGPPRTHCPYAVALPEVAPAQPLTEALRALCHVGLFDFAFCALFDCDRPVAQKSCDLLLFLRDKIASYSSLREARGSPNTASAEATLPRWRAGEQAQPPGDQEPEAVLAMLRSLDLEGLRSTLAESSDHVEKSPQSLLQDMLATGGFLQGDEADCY
UniProt Q6IQ32: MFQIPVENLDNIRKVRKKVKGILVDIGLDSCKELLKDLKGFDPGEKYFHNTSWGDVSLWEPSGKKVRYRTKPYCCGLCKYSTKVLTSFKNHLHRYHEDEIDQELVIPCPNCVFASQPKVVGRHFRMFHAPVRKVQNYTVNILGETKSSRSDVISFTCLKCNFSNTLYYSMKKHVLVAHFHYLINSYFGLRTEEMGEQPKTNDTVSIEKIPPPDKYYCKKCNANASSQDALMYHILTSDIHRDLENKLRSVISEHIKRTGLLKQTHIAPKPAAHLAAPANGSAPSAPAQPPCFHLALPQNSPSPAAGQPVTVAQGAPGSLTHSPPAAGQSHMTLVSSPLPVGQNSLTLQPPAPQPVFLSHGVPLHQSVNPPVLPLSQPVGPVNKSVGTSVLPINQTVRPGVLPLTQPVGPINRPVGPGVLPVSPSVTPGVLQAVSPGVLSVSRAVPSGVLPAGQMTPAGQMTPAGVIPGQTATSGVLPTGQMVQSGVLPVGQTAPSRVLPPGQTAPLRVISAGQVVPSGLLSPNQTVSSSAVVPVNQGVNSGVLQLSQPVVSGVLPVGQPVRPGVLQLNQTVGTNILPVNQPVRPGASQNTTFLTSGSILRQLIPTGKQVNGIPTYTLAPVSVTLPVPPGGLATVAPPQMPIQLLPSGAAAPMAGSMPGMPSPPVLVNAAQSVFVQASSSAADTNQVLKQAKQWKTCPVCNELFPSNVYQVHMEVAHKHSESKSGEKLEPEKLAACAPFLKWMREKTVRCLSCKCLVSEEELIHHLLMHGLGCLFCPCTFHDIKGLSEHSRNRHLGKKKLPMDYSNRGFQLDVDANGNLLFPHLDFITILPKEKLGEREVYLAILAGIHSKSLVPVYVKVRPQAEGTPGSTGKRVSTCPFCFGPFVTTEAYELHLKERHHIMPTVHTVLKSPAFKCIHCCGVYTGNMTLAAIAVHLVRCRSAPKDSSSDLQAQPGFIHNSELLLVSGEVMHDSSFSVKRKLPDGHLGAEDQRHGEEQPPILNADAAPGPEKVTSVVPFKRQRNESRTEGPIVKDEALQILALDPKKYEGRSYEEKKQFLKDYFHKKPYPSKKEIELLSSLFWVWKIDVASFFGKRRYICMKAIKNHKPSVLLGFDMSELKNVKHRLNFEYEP

compound: CN[C@@H]1C[C@H]2O[C@@](C)([C@@H]1OC)n1c3ccccc3c3c4c(c5c6ccccc6n2c5c31)C(=O)NC4 [staurosporine]; assay: log2 fold change of tryptic peptide abundance, ligand vs vehicle (limited proteolysis) (log2 ratio); higher = more trypsin-susceptible (destabilized); settings: ligand concentration: 20 uM; sample: K562 cleared lysate; digestion: 4 min, 22 C (HT-PELSA RT4min, Orbitrap Astral)

Row | Target | log2 fold change
1 | KLHDC10 (peptide sequence: SAAQGWDR, peptide start residue: 2) (UniProt Q6PID8) | -0.0802
2 | UniProt Q6NX49 (peptide sequence: AREELSHHVEVYR, peptide start residue: 99) | 0.364
3 | CCDC137 (peptide sequence: GESDGAYIHR, peptide start residue: 119) (UniProt Q6PK04) | 0.429
4 | C8orf82 (peptide sequence: RLALTMDLAPLLLAAR, peptide start residue: 199) (UniProt Q6P1X6) | -0.219
5 | PDXDC1 (peptide sequence: LPGQKPFK, peptide start residue: 701) (UniProt Q6P996) | 0.495
6 | SCYL2 (peptide sequence: LYDVETK, peptide start residue: 149) (UniProt Q6P3W7) | -0.143
7 | UniProt Q6DT37 (peptide sequence: LQEAQER, peptide start residue: 526) | -0.212
8 | FBXW9 (peptide sequence: VHVPTDPPR, peptide start residue: 413) (UniProt Q5XUX1) | -0.726
9 | RPUSD3 (peptide sequence: RLHLTPSQAAQLPLHLHLHR, peptide start residue: 297) (UniProt Q6P087) | -0.586
10 | UniProt Q63HK3 (peptide sequence: TFLDILR, peptide start residue: 507) | -0.17
11 | UniProt Q6EEV6 (peptide sequence: VAGQDGSVVQFK, peptide start residue: 22) | -0.0301
12 | ANKRD11 (peptide sequence: ESACLPEKLK, peptide start residue: 1336) (UniProt Q6UB99) | 1.16
13 | PWWP2B (peptide sequence: KPEEPENGEPTAAATAR, peptide start residue: 214) (UniProt Q6NUJ5) | -0.481
14 | ATAD2 (peptide sequence: GCLFYGPPGTGK, peptide start residue: 462) (UniProt Q6PL18) | -0.392
15 | UniProt Q5W0Q7 (peptide sequence: VTSQVSNLK, peptide start residue: 718) | -0.142
16 | UniProt Q6PEY2 (peptide sequence: LIGQIVSSITASLR, peptide start residue: 230) | -0.247
17 | UniProt Q6N069 (peptide sequence: ALQISTLEER, peptide start residue: 267) | -0.401
18 | MRM1 (peptide sequence: SEGLSMAQHPGLSSGPEKER, peptide start residue: 330) (UniProt Q6IN84) | 0.136
19 | E4F1 (peptide sequence: GTVIHEVHVQMQELSLGMK, peptide start residue: 329) (UniProt Q66K89) | 0.401

Row | Target | log2 fold change
20 | FAHD2B (peptide sequence: VVCVGMNYVDHCK, peptide start residue: 108) (UniProt Q6P2I3) | 1.12
21 | LRSAM1 (peptide sequence: KRLEYQMCLAK, peptide start residue: 16) (UniProt Q6UWE0) | 1.07
22 | UniProt Q6ZMT4 (peptide sequence: AIEEENGK, peptide start residue: 474) | 0.252
23 | UniProt Q641Q2 (peptide sequence: KQTLCLQAQREEK, peptide start residue: 590) | 0.487
24 | MRPL54 (peptide sequence: TLEELDPESR, peptide start residue: 106) (UniProt Q6P161) | -0.0927
25 | ZNF562 (peptide sequence: RIHTGEKPYECVECGK, peptide start residue: 392) (UniProt Q6V9R5) | 1.02
26 | ZNF280D (peptide sequence: LIMLVNDFYYGKHEGDVQEEQK, peptide start residue: 295) (UniProt Q6N043) | 0.483
27 | UniProt Q6PJG6 (peptide sequence: SCDLLLFLR, peptide start residue: 719) | -0.114
28 | UniProt Q6P2P2 (peptide sequence: MGFRDEAAGYFHK, peptide start residue: 114) | -0.192
29 | HIBCH (peptide sequence: LSQACMR, peptide start residue: 332) (UniProt Q6NVY1) | 0.597
30 | UniProt Q5XG87 (peptide sequence: GSHGHTQGGGYSSVGSGGVRPPVGNR, peptide start residue: 719) | -0.437
31 | UniProt Q6GMV3 (peptide sequence: EEVGQYLK, peptide start residue: 127) | -0.256
32 | ADNP2 (peptide sequence: TKPYCCGLCK, peptide start residue: 70) (UniProt Q6IQ32) | 0.183
33 | UniProt Q6PJW8 (peptide sequence: TVQPHTVTALR, peptide start residue: 240) | 0.436
34 | IQSEC1 (peptide sequence: QMIGEFLGNR, peptide start residue: 572) (UniProt Q6DN90) | 0.142
35 | JMJD6 (peptide sequence: WCLFPTSTPR, peptide start residue: 206) (UniProt Q6NYC1) | 0.27
36 | UHRF1BP1 (peptide sequence: WHEETGLKPPWHLGVDSLFR, peptide start residue: 408) (UniProt Q6BDS2) | -0.947
37 | UniProt Q6TFL4 (peptide sequence: YHILGNEMMSPR, peptide start residue: 291) | 0.497
